According to paper doi:10.1101/2024.09.11.612483:
No constants are given. Whether binding was seen depends on the method and setting. In cells and extracts the contact can be indirect. Some binding calls cover weakened binding; strength is not graded here. Tags and fused reporters may be left off the sequences shown.

Protein sequences, listed by entry. Tags and fused reporters are not part of them. Lines headed by an entry give the natural chain unless they say otherwise; changes in a name come on top.
UniProt P12004: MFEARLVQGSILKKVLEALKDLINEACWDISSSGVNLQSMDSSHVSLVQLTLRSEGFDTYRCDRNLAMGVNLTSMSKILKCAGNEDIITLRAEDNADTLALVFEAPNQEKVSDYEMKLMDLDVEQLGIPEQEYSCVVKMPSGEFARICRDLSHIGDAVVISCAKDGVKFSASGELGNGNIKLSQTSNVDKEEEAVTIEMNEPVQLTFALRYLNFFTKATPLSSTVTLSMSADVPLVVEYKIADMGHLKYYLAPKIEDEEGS

Key:
[1] = biological target: endogenous PCNA (U2OS cells) (human (endogenous in U2OS)) (UniProt P12004); experiment: proximity ligation; in situ PLA (Duolink) in fixed, permeabilised U2OS cells (WT or 53BP1-KO), anti-FLAG with anti-PCNA or anti-HA; untreated, HU (1 mM, 24 h) or IR (4 Gy, 2 h after)
HA-PCNA-K164R = HA-PCNA-K164R (UniProt P12004); experiment: as above
HA-PCNA-WT = HA-PCNA-WT (UniProt P12004); experiment: as above
[2] = biological target: endogenous PCNA (U2OS cells) (human (endogenous in U2OS)) (UniProt P12004); experiment: co-IP; co-immunoprecipitation with or without HU treatment; bait, cells and constructs not shown (Supplementary Figure 7c)
GST-PCNA = GST-PCNA (UniProt P12004); experiment: pull-down; GST-PCNA or GST-PCNA-Ub on glutathione-Sepharose beads incubated with lysate of 293T cells expressing 3xFlag-PIF1, NETN (150 mM NaCl, 1 mM EDTA, 20 mM Tris-HCl pH 8.0, 0.5% NP-40), 3 hours at 4°C; anti-Flag Western blot; only the target purified

| Binder | binding [1] | binding (HA-PCNA-K164R) | binding (HA-PCNA-WT) | binding [2] | binding (GST-PCNA) |
| --- | --- | --- | --- | --- | --- |
| Flag-PIF1 (stably expressed in U2OS cells) (protein, UniProt Q9H611 1-641) MLSGIEAAAGEYEDSELRCRVAVEELSPGGQPRRRQALRTAELSLGRNERRELMLRLQAPGPAGRPRCFPLRAARLFTRFAEAGRSTLRLPAHDTPGAGAVQLLLSDCPPDRLRRFLRTLRLKLAAAPGPGPASARAQLLGPRPRDFVTISPVQPEERRLRAATRVPDTTLVKRPVEPQAGAEPSTEAPRWPLPVKRLSLPSTKPQLSEEQAAVLRAVLKGQSIFFTGSAGTGKSYLLKRILGSLPPTGTVATASTGVAACHIGGTTLHAFAGIGSGQAPLAQCVALAQRPGVRQGWLNCQRLVIDEISMVEADLFDKLEAVARAVRQQNKPFGGIQLIICGDFLQLPPVTKGSQPPRFCFQSKSWKRCVPVTLELTKVWRQADQTFISLLQAVRLGRCSDEVTRQLQATASHKVGRDGIVATRLCTHQDDVALTNERRLQELPGKVHRFEAMDSNPELASTLDAQCPVSQLLQLKLGAQVMLVKNLSVSRGLVNGARGVVVGFEAEGRGLPQVRFLCGVTEVIHADRWTVQATGGQLLSRQQLPLQLAWAMSIHKSQGMTLDCVEISLGRVFASGQAYVALSRARSLQGLRVLDFDPMAVRCDPRVLHFYATLRRGRSLSLESPDDDEAASDQENMDPIL | binds | binds | binds | binds |  |
| 3xFlag-PIF1 (293T cells, transfected) (protein, UniProt Q9H611 1-641) MLSGIEAAAGEYEDSELRCRVAVEELSPGGQPRRRQALRTAELSLGRNERRELMLRLQAPGPAGRPRCFPLRAARLFTRFAEAGRSTLRLPAHDTPGAGAVQLLLSDCPPDRLRRFLRTLRLKLAAAPGPGPASARAQLLGPRPRDFVTISPVQPEERRLRAATRVPDTTLVKRPVEPQAGAEPSTEAPRWPLPVKRLSLPSTKPQLSEEQAAVLRAVLKGQSIFFTGSAGTGKSYLLKRILGSLPPTGTVATASTGVAACHIGGTTLHAFAGIGSGQAPLAQCVALAQRPGVRQGWLNCQRLVIDEISMVEADLFDKLEAVARAVRQQNKPFGGIQLIICGDFLQLPPVTKGSQPPRFCFQSKSWKRCVPVTLELTKVWRQADQTFISLLQAVRLGRCSDEVTRQLQATASHKVGRDGIVATRLCTHQDDVALTNERRLQELPGKVHRFEAMDSNPELASTLDAQCPVSQLLQLKLGAQVMLVKNLSVSRGLVNGARGVVVGFEAEGRGLPQVRFLCGVTEVIHADRWTVQATGGQLLSRQQLPLQLAWAMSIHKSQGMTLDCVEISLGRVFASGQAYVALSRARSLQGLRVLDFDPMAVRCDPRVLHFYATLRRGRSLSLESPDDDEAASDQENMDPIL |  |  |  |  | binds |
